Earlier results, collected in PMC8778678 (Viruses, 2022).

Tested on: SARS-CoV-2
Parameters: method as in ref 28 = [28]
Conditions: Vero E6 system; read-out: EC50, SARS-CoV-2 cytopathic effect; cited from earlier work

Q: With `CN(C)CCCN1c2ccccc2CCc2ccc(Cl)cc21` [clomipramine] as the compound, how does the EC50 read?
A: 13.6 µM
